Assay results published in patent US20210388105A1.
Positions count from the first letter of the chain named. No constants are given. Whether binding was seen depends on the method and setting. Some binding calls cover weakened binding; strength is not graded here.

The chains behind the UniProt entries cited, without tags or fusion partners. Where a name states a change or a piece, a line headed by the entry shows the natural chain unless it says otherwise.
UniProt P49961: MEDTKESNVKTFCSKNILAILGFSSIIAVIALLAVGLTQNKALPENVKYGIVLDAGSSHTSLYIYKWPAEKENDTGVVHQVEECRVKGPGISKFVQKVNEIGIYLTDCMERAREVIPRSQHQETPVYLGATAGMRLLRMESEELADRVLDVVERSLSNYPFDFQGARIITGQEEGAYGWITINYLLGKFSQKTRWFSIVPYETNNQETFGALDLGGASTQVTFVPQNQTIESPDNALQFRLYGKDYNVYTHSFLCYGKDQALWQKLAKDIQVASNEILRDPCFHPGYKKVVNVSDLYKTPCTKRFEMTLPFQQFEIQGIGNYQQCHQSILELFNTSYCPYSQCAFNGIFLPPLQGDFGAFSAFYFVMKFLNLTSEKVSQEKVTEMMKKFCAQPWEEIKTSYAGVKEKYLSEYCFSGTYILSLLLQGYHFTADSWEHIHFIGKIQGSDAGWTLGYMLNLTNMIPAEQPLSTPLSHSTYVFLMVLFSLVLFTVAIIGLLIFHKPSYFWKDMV

B1: hu23.H5L5 (antibody, V domains shown)
VH: QVQLVQSGAEVKKPGASVKVSCKASGYNLKDTFLHWVRQAPGQGLEWMGRIDPANGNIKYDPKFQGRVTITADTSANTAYMELISLRSEDTAVYYCANSPYYYGSGYRIFDVWGQGTTVTVSS
VL: QIVLTQSPATLSLSPGERATLSCSAFSSVNYMHWYQQKPGQAPRLLIYTTSNLASGIPTRFSGSGSGTSYTLTISSLEPEDFAVYYCQQRSTYPFTFGQGTKLEIK
B2: mAb23 (antibody, V domains shown)
VH: EVQLQQSGAELLRPGASVKLSCTASGYNLKDTFLHWVKQRPEQGLEWIGRIDPANGNIKYDPKFQGKATLTADTSSNTAYLQLISLTSEDTAVYYCANSPYYYGSGYRIFDVWGAGTTVTVSS
VL: QIVLTQSPAIMSASPGEKVTITCSAFSSVNYMHWYQQKPGTSPKLLIYTTSNLASGVPTRFSGSGSGTSYSLTISRMEAEDAATYYCQQRSTYPFTFGSGTKLEIQ
B3: mAb34 (antibody, V domains shown)
VH: EIQVQQSGPELVKPGASVKVSCKASGYSFTDYNMYWVKQSHGKSLEWIGFIDPYNGYTSYNQKFKGKATLTIDKSSSTAFMHLNSLTSEDSAVYYCAIYGYDDAYYFDYWGQGTTLTVSS
VL: B2 VL with F26T, N30S, Y35F, Q36R, L46W, T49S, T59A, E78A, S91I, Q106T
B4: mAb35 (antibody, V domains shown)
VH: EVRLQQSGAELVKPGASVKLSCTASGFNIEDTYVHWMKQRPEQGLEWIGRIDPAIDNSKYDPKFQGKATITAVSSSNTAYLQLSSLTSEDTAVYYCALYDGYNVYAMDYWGQGTSVTVSS
VL: DIVMTQAAFSNPVTLGTSASISCRSSKNLLHSNGITYLYWYLQRPGQSPQLLIYRASTLASGVPNRFSGSESGTDFTLRISRVEAEDVGVYYCAQLLELPHTFGGGTKLEIK
B5: mAb13 (antibody, V domains shown)
VH: QIQLVQSGPELKKPGETVKISCKASGYTFTNYGMNWVKQAPGKGLRWMGLINTYTGEPTYADDFKDRFAFSLETSASTAFLQINNLKDEDMATYFCARKGIYYDYVWFFDVWGAGTTVTVSS
VL: DIQMTQSPSSLSTSLGGKVSITCKASQDINRYIAWYQHKPGKGPRLLIHYTSTLLPGIPSRFSGSGSGRDYSFSISNLEPEDIATYFCLQYSNLLTFGGGTKLEIK
B6: mAb14 (antibody, V domains shown)
VH: EVKLEESGGGLVQPGGSMKLSCVASGFTFSKYWMNWVRQSPEKGLEWVAEIRLKSNKYGTHYAESVKGRFTISRDDSKNNVYLQMNNLRPEDTGIYYCTTQLDLYWFFDVWGAGTTVTVSS
VL: DIVMTQSPAILSVTPGDRVSLSCRASQSISDYLHWYQQKSHESPRLLIKYASQSISGIPSRFSGSGSGSNFTLSINSVEPEDVGVYFCQNGHSLPLTFGAGTKLELR

Tests used:
[1] = target: cynomolgus CD39 (full length, on CHOK1-cynoCD39 cells) (cynomolgus monkey); assay: FACS
[2] = target: human CD39 (protein; form not stated) (human) (UniProt P49961); assay: ELISA on coated ENTPD1 (CD39) protein, anti-hIgG-HRP, OD450
[3] = target: human CD39 (protein; form not stated) (human) (UniProt P49961); assay: ELISA, coated ENTPD1 protein
[4] = target: cynomolgus CD39 (full length, on CHOK1-cynoCD39 cells) (cynomolgus monkey); assay: FACS on CHO-k1/Cyno CD39 cells, MFI [Continued) D]

Binder	binding [1]	binding [2]	binding [3]	binding [4]
B1	binds	binds	binds	binds
B2	binds			
B3	binds			
B4	binds			
B5	binds			
B6	binds			
